Test results taken from US10023601B2, “Hydrolysis resistant sialic acid derivatives and methods for their use” (The University of British Columbia, priority 2014, dated 2018).
At least one read-out could not be matched to a standard name with certainty.

Chains of the proteins cited; added tags and fusions are not shown. Lines headed by an entry give the natural chain unless they say otherwise; changes in a name come on top. Residues count along the entry.
UniProt A0A0H2YQR1, 1-694: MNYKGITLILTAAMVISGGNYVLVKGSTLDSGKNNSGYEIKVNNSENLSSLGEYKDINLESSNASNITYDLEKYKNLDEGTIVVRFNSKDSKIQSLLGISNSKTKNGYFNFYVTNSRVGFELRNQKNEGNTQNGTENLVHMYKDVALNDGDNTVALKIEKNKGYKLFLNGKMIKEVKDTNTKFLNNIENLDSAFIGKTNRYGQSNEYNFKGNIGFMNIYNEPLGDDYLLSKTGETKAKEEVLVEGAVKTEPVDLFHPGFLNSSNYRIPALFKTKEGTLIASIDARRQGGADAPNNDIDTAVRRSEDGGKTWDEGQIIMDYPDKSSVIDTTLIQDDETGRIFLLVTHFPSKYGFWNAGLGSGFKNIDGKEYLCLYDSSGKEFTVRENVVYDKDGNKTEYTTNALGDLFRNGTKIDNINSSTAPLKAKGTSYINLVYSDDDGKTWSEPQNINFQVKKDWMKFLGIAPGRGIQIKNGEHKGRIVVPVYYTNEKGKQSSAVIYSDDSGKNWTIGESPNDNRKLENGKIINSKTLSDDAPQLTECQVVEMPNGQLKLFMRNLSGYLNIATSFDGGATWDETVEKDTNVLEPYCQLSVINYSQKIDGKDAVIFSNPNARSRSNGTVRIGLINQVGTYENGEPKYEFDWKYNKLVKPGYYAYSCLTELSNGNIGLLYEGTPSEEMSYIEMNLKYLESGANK
UniProt P03472: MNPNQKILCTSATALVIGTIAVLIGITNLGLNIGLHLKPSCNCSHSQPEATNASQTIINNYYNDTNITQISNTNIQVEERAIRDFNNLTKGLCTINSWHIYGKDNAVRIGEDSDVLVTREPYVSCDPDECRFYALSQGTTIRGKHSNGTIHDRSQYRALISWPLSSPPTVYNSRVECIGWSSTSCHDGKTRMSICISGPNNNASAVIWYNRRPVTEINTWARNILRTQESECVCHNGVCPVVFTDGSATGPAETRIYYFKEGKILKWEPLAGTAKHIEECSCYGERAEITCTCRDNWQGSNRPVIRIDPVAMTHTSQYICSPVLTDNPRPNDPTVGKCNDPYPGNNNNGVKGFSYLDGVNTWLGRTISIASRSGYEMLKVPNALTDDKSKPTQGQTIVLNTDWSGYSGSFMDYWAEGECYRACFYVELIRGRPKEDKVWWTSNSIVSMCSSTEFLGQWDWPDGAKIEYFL

Experiments:
[1] = target: C. perfringens (GH33) sialidase (NanI) (Clostridium perfringens, UniProt A0A0H2YQR1); assay type: biochemical; settings: pH 6.7
[2] = target: influenza neuraminidase N9 (GH34) (Influenza A virus, UniProt P03472); assay type: biochemical; settings: pH 5.9
[3] = target: T1, T. rangeli (GH33) sialidase (TrSA) (Trypanosoma rangeli, UniProt O44049); test: Sialidase kinetics, β-galactosidase coupled assay, T. rangeli sialidase; settings: pH 6
T1 sequence (O44049 23-660): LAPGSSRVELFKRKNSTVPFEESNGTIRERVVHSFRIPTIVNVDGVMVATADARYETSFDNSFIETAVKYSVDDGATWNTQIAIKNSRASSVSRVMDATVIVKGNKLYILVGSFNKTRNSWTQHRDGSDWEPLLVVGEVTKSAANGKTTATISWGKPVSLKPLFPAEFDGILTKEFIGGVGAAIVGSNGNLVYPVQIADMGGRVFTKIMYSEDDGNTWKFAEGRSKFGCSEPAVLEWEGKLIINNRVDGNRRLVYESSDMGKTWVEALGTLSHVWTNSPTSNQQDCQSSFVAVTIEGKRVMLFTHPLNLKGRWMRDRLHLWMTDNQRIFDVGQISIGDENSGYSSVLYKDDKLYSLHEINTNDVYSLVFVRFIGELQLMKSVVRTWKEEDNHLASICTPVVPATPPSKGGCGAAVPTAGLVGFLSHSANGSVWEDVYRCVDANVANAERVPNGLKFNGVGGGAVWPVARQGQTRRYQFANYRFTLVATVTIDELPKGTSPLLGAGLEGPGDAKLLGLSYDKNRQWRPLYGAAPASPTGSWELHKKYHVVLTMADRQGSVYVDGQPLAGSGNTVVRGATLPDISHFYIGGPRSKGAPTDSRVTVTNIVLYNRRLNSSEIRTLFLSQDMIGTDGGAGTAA

## CC(=O)N[C@H]1[C@H]([C@H](O)[C@H](O)CO)O[C@@](O[C@H]2[C@@H](O)[C@@H](CO)O[C@@H](Oc3ccccc3[N+](=O)[O-])[C@@H]2O)(C(=O)O)C[C@@H]1O [compound 17, ortho-Nitrophenyl (5-Acetamido-3,5-dideoxy-D-glycero-α-D-galacto-non2-ulopyranosylonic acid)-(2→3)-β-D-galactopyranoside]
[1]
  kcat/Km: 1620 M⁻¹ s⁻¹
[2]
  Vm/Km: 21.2 min^−1 × 10^−3
[3]
  kcat/Km: 567 M⁻¹ s⁻¹

## CC(=O)N[C@H]1[C@H]([C@H](F)[C@H](O)CO)O[C@@](O[C@H]2[C@@H](O)[C@@H](CO)O[C@@H](Oc3ccccc3[N+](=O)[O-])[C@@H]2O)(C(=O)O)C[C@@H]1O [compound 18, ortho-Nitrophenyl (5-Acetamido-3,5,7-trideoxy-7-fluoro-D-glycero-α-D-galacto-non2-ulopyranosylonic acid)-(2→3)-β-D-galactopyranoside]
[1]
  kcat/Km: 12.2 M⁻¹ s⁻¹
[2]
  Vm/Km: 11.8 min^−1 × 10^−3
[3]
  kcat/Km: 2.17 M⁻¹ s⁻¹
